The source of these data is the supplement of paper PMC6411743.

Sequences of proteins named here, by UniProt entry; tags and fusion partners are left off. A change or cut given only in a name is not applied to a line headed by its entry.
UniProt O75928, whole entry: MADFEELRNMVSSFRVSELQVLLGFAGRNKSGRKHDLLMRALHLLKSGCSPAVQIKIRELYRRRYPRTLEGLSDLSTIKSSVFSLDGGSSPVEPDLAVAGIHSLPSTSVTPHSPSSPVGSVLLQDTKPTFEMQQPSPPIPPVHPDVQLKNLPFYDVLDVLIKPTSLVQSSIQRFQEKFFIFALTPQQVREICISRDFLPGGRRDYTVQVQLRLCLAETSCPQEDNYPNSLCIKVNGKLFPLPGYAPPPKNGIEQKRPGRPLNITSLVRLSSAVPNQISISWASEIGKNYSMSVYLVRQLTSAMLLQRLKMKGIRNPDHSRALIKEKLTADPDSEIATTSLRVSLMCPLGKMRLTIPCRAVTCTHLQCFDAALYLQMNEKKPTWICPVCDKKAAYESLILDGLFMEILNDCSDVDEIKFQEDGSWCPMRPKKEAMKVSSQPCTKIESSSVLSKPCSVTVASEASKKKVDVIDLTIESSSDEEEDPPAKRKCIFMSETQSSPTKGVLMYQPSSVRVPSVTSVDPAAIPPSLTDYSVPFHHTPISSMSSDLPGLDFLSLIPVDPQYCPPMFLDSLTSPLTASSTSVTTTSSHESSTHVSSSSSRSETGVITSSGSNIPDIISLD
UniProt O75093: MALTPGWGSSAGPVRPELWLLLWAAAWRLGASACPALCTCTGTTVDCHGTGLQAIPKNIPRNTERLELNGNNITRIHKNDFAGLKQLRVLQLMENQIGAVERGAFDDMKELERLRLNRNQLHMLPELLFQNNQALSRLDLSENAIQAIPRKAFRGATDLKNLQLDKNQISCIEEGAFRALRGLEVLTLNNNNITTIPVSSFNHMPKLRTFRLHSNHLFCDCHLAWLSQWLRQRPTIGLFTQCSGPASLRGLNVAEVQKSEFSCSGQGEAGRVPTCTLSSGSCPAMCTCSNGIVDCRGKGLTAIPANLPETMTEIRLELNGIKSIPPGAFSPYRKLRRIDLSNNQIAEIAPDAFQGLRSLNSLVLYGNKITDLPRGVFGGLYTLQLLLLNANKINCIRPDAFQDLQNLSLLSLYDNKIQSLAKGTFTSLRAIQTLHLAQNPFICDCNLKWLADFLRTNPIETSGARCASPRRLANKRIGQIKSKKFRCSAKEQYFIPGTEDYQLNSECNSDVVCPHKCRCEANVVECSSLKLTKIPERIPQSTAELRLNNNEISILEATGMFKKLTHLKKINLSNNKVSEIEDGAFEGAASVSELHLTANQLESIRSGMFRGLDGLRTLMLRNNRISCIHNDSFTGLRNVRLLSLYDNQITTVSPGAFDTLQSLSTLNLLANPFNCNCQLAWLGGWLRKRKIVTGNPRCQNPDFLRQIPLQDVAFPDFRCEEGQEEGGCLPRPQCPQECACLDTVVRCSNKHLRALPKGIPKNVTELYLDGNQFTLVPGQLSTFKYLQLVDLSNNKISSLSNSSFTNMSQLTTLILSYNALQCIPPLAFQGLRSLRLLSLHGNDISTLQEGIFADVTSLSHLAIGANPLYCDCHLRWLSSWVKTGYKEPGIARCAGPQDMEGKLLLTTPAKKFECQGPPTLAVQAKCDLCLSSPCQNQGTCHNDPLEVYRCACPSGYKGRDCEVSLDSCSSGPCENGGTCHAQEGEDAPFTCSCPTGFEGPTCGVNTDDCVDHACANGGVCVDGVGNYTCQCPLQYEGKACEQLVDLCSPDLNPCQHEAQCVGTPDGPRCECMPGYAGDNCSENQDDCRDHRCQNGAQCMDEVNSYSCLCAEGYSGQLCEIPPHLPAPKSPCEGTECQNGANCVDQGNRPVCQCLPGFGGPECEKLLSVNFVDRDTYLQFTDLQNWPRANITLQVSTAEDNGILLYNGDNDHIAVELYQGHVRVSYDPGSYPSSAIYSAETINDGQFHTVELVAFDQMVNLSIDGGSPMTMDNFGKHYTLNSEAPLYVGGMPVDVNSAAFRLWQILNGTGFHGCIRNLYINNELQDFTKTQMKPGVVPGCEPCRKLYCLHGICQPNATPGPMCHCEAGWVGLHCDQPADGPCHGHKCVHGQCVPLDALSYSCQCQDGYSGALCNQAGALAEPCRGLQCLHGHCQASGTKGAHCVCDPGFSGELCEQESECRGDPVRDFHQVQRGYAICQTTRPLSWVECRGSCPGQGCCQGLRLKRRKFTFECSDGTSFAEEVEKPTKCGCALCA
UniProt O95183: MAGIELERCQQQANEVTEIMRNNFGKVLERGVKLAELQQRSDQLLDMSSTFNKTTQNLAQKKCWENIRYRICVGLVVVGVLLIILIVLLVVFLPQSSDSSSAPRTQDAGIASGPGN
UniProt O75494: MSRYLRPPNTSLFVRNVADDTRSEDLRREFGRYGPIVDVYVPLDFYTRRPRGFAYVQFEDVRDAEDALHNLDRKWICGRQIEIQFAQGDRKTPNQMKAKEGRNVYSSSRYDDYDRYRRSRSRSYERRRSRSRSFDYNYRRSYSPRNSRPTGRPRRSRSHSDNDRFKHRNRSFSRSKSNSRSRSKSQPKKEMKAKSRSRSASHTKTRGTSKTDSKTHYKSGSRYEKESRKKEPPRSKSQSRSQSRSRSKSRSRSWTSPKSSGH
UniProt O75828: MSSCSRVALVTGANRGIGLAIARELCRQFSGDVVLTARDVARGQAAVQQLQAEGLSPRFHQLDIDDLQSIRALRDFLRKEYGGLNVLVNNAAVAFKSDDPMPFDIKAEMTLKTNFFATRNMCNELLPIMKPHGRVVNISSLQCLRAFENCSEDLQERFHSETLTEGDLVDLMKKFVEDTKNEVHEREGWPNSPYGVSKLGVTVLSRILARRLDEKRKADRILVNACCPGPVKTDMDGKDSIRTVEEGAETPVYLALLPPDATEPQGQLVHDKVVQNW
UniProt O75964: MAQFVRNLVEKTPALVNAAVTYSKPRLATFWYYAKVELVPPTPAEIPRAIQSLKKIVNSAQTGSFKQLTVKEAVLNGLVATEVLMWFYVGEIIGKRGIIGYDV
UniProt O75351, whole entry: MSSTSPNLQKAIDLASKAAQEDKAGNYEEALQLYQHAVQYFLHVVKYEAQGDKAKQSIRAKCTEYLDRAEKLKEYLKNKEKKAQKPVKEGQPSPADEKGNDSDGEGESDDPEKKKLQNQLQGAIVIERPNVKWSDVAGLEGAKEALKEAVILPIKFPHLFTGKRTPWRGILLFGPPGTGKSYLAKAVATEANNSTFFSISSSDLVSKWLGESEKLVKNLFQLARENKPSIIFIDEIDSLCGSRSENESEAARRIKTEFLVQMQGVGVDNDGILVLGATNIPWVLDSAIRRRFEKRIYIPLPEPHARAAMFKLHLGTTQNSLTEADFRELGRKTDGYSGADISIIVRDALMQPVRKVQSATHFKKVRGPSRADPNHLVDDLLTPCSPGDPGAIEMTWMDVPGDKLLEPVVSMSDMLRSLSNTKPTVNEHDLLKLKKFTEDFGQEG
UniProt O75822, whole entry: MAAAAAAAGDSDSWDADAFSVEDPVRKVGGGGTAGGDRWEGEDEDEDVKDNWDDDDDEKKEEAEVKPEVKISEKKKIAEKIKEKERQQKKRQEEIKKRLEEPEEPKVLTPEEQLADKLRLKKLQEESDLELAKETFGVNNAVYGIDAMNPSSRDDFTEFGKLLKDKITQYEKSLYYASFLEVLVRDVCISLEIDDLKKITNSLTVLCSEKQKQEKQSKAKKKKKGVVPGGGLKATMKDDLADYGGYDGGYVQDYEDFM
UniProt O94888: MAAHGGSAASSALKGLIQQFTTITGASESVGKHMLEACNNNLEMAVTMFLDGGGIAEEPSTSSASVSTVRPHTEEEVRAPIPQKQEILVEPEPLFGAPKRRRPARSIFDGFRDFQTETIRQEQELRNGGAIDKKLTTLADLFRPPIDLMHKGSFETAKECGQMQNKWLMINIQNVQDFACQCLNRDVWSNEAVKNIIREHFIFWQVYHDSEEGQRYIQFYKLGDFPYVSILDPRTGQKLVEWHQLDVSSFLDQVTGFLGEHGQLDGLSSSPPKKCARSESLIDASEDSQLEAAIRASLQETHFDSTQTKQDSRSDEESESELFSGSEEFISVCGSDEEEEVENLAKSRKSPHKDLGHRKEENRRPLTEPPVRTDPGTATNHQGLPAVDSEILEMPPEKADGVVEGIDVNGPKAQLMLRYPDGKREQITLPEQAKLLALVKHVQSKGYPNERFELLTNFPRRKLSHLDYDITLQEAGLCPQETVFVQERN
UniProt O60911: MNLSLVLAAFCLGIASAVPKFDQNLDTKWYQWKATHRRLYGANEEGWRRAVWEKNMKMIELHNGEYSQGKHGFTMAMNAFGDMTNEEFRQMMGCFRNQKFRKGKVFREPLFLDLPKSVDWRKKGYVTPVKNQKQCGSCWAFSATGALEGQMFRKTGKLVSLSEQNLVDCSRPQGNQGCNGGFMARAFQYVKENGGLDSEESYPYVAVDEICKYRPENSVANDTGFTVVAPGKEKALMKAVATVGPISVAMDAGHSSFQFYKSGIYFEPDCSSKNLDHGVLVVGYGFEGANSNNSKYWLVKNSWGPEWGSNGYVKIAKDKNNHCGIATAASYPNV
UniProt O95747, whole entry, looked up: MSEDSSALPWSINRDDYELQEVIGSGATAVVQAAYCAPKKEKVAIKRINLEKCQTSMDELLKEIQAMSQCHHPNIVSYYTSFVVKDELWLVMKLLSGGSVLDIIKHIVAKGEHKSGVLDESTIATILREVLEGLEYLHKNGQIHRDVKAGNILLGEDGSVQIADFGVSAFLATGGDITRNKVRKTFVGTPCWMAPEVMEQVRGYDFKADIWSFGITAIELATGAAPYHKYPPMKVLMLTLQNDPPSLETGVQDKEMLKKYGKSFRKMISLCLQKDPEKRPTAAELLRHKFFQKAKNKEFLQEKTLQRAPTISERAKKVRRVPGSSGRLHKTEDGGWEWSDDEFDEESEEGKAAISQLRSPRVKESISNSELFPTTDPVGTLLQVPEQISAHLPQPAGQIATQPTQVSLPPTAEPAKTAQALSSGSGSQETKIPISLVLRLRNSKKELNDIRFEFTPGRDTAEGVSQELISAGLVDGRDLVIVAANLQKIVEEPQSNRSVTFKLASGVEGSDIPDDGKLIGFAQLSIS
UniProt O75607: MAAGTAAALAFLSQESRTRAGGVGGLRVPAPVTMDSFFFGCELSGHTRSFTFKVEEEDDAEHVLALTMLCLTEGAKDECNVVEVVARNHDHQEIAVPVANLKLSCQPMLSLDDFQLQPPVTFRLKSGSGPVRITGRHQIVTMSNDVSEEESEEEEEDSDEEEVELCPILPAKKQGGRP
UniProt O75116: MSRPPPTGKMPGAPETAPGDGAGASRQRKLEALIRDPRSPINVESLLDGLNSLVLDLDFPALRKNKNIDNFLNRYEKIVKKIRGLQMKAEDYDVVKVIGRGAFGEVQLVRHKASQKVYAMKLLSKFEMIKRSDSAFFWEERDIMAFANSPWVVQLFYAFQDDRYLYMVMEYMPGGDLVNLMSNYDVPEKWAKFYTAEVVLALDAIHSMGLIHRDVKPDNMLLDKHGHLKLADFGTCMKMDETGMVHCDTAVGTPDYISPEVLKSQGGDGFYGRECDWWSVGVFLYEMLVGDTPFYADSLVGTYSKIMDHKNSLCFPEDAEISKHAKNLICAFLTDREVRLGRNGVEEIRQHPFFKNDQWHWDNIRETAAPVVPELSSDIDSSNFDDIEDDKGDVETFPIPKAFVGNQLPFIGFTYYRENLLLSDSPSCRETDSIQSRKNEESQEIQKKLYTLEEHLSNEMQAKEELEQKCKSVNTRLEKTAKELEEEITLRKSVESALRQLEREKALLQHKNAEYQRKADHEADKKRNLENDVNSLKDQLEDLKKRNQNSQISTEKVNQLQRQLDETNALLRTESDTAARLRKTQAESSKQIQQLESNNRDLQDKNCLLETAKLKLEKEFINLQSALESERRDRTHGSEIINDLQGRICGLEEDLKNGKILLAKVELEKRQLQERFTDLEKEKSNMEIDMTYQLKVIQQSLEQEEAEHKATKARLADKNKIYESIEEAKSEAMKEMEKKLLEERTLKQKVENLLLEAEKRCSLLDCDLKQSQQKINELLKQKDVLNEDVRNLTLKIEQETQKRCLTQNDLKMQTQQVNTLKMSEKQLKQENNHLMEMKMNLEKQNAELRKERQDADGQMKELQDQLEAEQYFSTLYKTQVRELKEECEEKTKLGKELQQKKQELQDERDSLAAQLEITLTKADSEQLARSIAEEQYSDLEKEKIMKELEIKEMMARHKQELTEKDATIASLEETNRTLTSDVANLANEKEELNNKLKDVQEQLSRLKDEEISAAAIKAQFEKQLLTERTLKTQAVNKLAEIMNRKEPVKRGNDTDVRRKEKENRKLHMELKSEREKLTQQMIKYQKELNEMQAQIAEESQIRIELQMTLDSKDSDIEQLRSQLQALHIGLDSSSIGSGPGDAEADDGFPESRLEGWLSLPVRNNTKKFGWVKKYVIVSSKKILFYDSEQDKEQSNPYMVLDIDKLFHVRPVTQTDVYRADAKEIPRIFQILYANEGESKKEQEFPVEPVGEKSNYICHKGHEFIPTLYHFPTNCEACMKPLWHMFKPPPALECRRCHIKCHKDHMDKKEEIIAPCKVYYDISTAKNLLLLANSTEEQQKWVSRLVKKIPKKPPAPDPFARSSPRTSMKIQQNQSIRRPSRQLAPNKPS

± gives the standard deviation of the averaged measurements. Only a part is listed here, and it is no random draw. Most entries show no effect beyond the scatter of the controls.

Compound in the first test: Nc1ncnc2c1ncn2[C@@H]1O[C@H](COP(=O)(O)OP(=O)(O)OP(=O)(O)O)[C@@H](O)[C@H]1O [adenosine triphosphate]
Nature of the test: NP40-soluble protein abundance relative to vehicle (solubility fold change) (ratio); higher = more soluble protein in presence of ATP. The note with it: concentration: 0.1mM. In short, it runs like this:
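Values are fold changes against the detergent-processed vehicle, based on vsn-normalised intensities. Jurkat crude lysate was treated at eight concentrations from 0.1 to 10 mM (10 min at room temperature, then 3 min at 37 °C), solubilised with 0.8% NP40 and benzonase, ultracentrifuged and analysed by TMT-labelled LC-MS/MS over three independent experiments.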
UniProt O95271 and related entries: the NP40-soluble protein abundance is 1.02 ± 0.072.
Consider PRMT3 (UniProt O60678), for which the NP40-soluble protein abundance is 1.06 ± 0.024.
Same read-out and setting: the value for CCNT1 (UniProt O60563) was 0.9946 ± 0.0075.
UniProt O75928 and related entries: the NP40-soluble protein abundance amounted to 1.06 ± 0.083.
As to UniProt O75093, the NP40-soluble protein abundance is 0.98 ± 0.057.
Regarding UniProt O75312, the NP40-soluble protein abundance amounted to 0.991 ± 0.032.
The same measure, in the same setting: the figure for STAM2 (UniProt O75886) is 0.9742 ± 0.0077.
Take UniProt O95479 and related entries: the NP40-soluble protein abundance worked out at 1.05 ± 0.049.
As to VAMP5 (UniProt O95183), the NP40-soluble protein abundance stood at 0.878 ± 0.068.
As for LETM1 (UniProt O95202), the NP40-soluble protein abundance came to 0.945 ± 0.013.

The same test, now with this note: concentration: 0.5mM.
On to UniProt O75494 and related entries, for which the NP40-soluble protein abundance was determined as 1.19 ± 0.043.
UniProt O60645 and related entries: the NP40-soluble protein abundance came out at 1.08 ± 0.048.
With UniProt O94768, the NP40-soluble protein abundance was 1.12 ± 0.053.
Same read-out and setting: the figure for CBR3 (UniProt O75828) is 0.989 ± 0.032; for UniProt O75964 it is 0.864 ± 0.18; for CDC123 (UniProt O75794) it is 1.09 ± 0.088.
In the case of SNRNP200 (UniProt O75643), the NP40-soluble protein abundance turned out to be 1.07 ± 0.029.
On the same count and under the same terms, the value for UniProt O95425 and related entries was 0.826 ± 0.057; that for TAF5L (UniProt O75529) was 1.08 ± 0.053.
On to UniProt O75143 and related entries, for which the NP40-soluble protein abundance was found to be 1.04 ± 0.021.
As to UniProt O95236 and related entries, the NP40-soluble protein abundance was determined as 0.907 ± 0.06.
With UniProt O75592 and related entries, the NP40-soluble protein abundance turned out to be 0.996 ± 0.084.
Turning to VPS4B (UniProt O75351), the NP40-soluble protein abundance is 1.05 ± 0.05.
Consider UniProt O94822 and related entries, for which the NP40-soluble protein abundance was determined as 1.03 ± 0.014.
As to UniProt O95104 and related entries, the NP40-soluble protein abundance is 1.48 ± 0.058.
As for UniProt O94916 and related entries, the NP40-soluble protein abundance came out at 0.9739 ± 0.0013.
Same read-out and setting: the figure for KIF4A (UniProt O95239) is 1.03 ± 0.035.
With UniProt O75822 and related entries, the NP40-soluble protein abundance turned out to be 0.781 ± 0.068.
In the case of UBXN7 (UniProt O94888), the NP40-soluble protein abundance worked out at 0.971 ± 0.023.
Still for that read-out and setting: the figure for CTSV (UniProt O60911) is 1 ± 0.018; for UniProt O95747 it is 1.03 ± 0.076; for UniProt O95684-2 it is 0.915 ± 0.061.
UTP20 (UniProt O75691): the NP40-soluble protein abundance turned out to be 1.04 ± 0.11.
For the target NPM3 (UniProt O75607), the NP40-soluble protein abundance was found to be 1.005 ± 0.0086.
For ENDOD1 (UniProt O94919), the NP40-soluble protein abundance was 0.996 ± 0.025.
As for MED26 (UniProt O95402), the NP40-soluble protein abundance is 1.11 ± 0.056.
For the target ROCK2 (UniProt O75116), the NP40-soluble protein abundance was determined as 1.01 ± 0.045.
Still for that read-out and setting: the value for UniProt O95271 and related entries was 1.12 ± 0.019; that for PRMT3 (UniProt O60678) was 1.04 ± 0.035; that for CCNT1 (UniProt O60563) was 1.07 ± 0.025.
The same measure, in the same setting: the value for UniProt O75928 and related entries was 0.966 ± 0.058; that for UniProt O75093 was 0.954 ± 0.017.
For the target UniProt O75312, the NP40-soluble protein abundance was found to be 0.988 ± 0.043.
Turning to STAM2 (UniProt O75886), the NP40-soluble protein abundance turned out to be 0.955 ± 0.025.
Turning to UniProt O95479 and related entries, the NP40-soluble protein abundance is 1.02 ± 0.034.
Turning to VAMP5 (UniProt O95183), the NP40-soluble protein abundance was determined as 0.825 ± 0.17.
For LETM1 (UniProt O95202), the NP40-soluble protein abundance amounted to 0.9816 ± 0.0098.
